Reference: publication PMC5323046
These are yes or no findings as the source states them, for the method shown. For some assays here: Binding seen in cells or lysates may run through a third protein. Some entries that bind do so weakly or less than the wild type. For some assays here: Where a sequence is shown, tags or fusion partners need not be part of it.

Assays:
[1] = biological target: T1, HA-tagged full-length SMCR8 (human) (UniProt Q8TEV9); assay: native gel or EMSA; HA-IP from 293T-REx cells inducibly expressing HA-tagged SMCR8, C9ORF72, ATG13 or ULK1, elution with HA peptide in PBS, Native PAGE (3-12% Bis-Tris), then immunoblot or in-gel digestion and mass spectrometry
T1 sequence: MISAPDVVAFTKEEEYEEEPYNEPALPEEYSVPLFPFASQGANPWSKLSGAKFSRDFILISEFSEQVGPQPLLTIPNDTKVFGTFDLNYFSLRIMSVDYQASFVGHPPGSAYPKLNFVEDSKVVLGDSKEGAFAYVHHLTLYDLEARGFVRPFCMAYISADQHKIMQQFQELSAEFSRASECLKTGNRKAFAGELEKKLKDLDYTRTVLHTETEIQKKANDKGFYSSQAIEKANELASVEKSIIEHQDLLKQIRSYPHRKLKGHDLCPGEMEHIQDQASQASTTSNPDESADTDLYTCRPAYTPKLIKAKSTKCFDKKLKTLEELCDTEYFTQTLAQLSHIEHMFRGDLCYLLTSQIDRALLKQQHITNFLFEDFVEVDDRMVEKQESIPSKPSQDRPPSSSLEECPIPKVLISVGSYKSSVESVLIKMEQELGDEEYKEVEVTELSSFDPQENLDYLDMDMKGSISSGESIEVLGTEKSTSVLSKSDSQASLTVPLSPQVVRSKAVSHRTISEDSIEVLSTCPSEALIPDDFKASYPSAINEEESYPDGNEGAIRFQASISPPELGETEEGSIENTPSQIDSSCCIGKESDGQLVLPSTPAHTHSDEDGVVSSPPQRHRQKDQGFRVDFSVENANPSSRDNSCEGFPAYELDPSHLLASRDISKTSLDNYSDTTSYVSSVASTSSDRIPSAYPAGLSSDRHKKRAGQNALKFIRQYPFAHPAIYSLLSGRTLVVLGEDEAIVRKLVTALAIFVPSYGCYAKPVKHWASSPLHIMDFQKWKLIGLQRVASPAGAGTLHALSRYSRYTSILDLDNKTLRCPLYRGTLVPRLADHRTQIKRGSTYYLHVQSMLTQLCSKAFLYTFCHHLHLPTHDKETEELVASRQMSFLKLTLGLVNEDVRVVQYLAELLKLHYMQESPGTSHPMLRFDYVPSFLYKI

[2] = biological target: T1, HA-tagged full-length SMCR8 (human); assay: co-IP; HA-IP (anti-HA-agarose, overnight, 4°C, MCLB buffer) from 293T-REx cells inducibly expressing HA-tagged bait, empty cells (MOCK) as control; SDS-PAGE and immunoblot of endogenous partners; cells untreated, with DMSO or 250 nM Torin1 for 2 hr, or starved with EBSS for 2 hr
[3] = biological target: T2, endogenous SMCR8 (human (endogenous in 293T)) (UniProt Q8TEV9); assay: SEC; whole cell lysates of 293T cells (freeze-thaw cycles, 50 mM TRIS pH 7.5, 150 mM NaCl) on Superose 6 10/300 GL; fractions by SDS-PAGE and immunoblot
T2 sequence: T1 sequence

[4] = biological target: T3, HA-tagged SMCR8 fragment 1–320 (human) (UniProt Q8TEV9); assay: co-IP; 293T cells transiently transfected with HA-tagged full length SMCR8 or fragments; HA-IP, SDS-PAGE, immunoblot of endogenous partners; blots quantified with ImageJ
T3 sequence: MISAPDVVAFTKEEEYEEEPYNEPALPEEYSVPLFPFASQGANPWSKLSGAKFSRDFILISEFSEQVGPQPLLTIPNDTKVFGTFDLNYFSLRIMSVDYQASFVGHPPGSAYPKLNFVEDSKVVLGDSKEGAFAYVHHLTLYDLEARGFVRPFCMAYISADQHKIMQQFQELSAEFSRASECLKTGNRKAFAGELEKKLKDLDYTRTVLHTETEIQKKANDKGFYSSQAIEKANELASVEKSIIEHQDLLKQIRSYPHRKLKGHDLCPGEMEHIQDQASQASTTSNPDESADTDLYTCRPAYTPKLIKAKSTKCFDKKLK

[5] = biological target: T4, HA-tagged SMCR8 fragment 1–400 (human) (UniProt Q8TEV9); assay: as above
T4 sequence: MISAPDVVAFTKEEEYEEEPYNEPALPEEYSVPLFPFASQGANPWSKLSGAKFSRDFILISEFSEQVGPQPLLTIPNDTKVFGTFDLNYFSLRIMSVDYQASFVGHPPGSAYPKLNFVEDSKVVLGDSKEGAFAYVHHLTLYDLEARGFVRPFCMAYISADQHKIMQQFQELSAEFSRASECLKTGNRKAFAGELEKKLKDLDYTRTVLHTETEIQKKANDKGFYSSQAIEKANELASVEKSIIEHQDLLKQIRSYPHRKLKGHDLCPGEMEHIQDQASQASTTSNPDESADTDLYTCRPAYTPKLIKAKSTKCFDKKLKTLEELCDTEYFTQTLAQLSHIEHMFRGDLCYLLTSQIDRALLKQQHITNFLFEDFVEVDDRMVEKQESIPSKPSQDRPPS

[6] = biological target: T5, HA-tagged SMCR8 fragment 701–937 (human) (UniProt Q8TEV9); assay: as above
T5 sequence: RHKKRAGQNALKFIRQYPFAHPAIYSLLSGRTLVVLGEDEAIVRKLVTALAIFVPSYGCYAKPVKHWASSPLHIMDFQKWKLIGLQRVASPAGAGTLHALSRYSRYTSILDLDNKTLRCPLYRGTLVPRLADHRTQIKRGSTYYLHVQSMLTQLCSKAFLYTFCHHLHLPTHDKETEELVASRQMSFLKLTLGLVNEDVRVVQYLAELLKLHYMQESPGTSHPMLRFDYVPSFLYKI

[7] = biological target: T6, HA-tagged SMCR8 fragment 120–320 (human) (UniProt Q8TEV9); assay: as above
T6 sequence: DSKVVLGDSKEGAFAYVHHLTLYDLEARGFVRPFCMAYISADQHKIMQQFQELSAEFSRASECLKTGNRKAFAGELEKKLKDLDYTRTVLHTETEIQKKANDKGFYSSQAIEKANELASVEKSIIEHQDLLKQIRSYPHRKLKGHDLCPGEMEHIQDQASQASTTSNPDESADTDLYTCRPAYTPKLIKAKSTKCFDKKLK

[8] = biological target: T1, HA-tagged full-length SMCR8 (human); assay: co-IP; 293T-REx cells inducibly expressing HA-SMCR8, transfected with increasing amounts of GFP-ATG13 or GFP-C9ORF72; HA-IP, immunoblot

binding [1]: binds
binding [2]: binds
binding [3]: binds
binding [4]: no binding
binding [5]: binds
binding [6]: no binding
binding [7]: no binding
binding [8]: binds
B1: endogenous C9ORF72 (protein, UniProt Q96LT7 1-481)
chain: MSTLCPPPSPAVAKTEIALSGKSPLLAATFAYWDNILGPRVRHIWAPKTEQVLLSDGEITFLANHTLNGEILRNAESGAIDVKFFVLSEKGVIIVSLIFDGNWNGDRSTYGLSIILPQTELSFYLPLHRVCVDRLTHIIRKGRIWMHKERQENVQKIILEGTERMEDQGQSIIPMLTGEVIPVMELLSSMKSHSVPEEIDIADTVLNDDDIGDSCHEGFLLNAISSHLQTCGCSVVVGSSAEKVNKIVRTLCLFLTPAERKCSRLCEAESSFKYESGLFVQGLLKDSTGSFVLPFRQVMYAPYPTTHIDVDVNTVKQMPPCHEHIYNQRRYMRSELTAFWRATSEEDMAQDTIIYTDESFTPDLNIFQDVLHRDTLVKAFLDQVFQLKPGLSLRSTFLAQFLLVLHRKALTLIKYIEDDTQKGKKPFKSLRNLKIDLDLTAEGDLNIIMALAEKIKPGLHSFIFGRPFYTSVQERDVLMTF
